Patent US8883746B2, “α-galactosylceramide derivatives, pharmaceutically acceptable salts thereof, preparation method and pharmaceutical composition for the immune adjuvant containing the same as an active ingredient” (SNU R&DB Foundation, priority 2006, dated 2014)
Some of these results come from one statement about several compounds together. At least one compound was matched to its structure with a doubt left.

System: naïve C57BL/6 mice
Experiment: IFN-γ and IL-4 production level in vivo (serum, ELISA)
Conditions: 1 μg/mouse intravenously; for Serum IFN-γ level compared to α-GalCer: FIGS. 4(a) and 4(b); for Serum IL-4 secretion compared to α-GalCer: FIGS. 5(a) and 5(b)
Protocol: Examination of IFN-γ and IL-4 Production Level In Vivo
α-GalCer or the α-GalCer derivatives (1 μg/mouse) were intravenously injected into naïve C57BL/6 mice. The serum concentrations of IFN-γ and IL-4 at each time point were determined through ELISA.

CCCCCCCCCCCCCC[C@@H](O)[C@@H](O)[C@H](CO[C@H]1OC(CO)[C@H](O)[C@H](O)[C@H]1O)NC(=O)CCCCCCCCCCCO (stereo partly drawn) [Example 13, N-((2S,3S,4R)-3,4-dihydroxy-1-((2S,3R,4S,5R)-3,4,5-trihydroxy-6-(hydroxymethyl)-tetrahydro-2H-pyran-2-yloxy)octadecan-2-yl)-12-hydroxydodecanamide]
Serum IFN-γ level compared to α-GalCer: relatively small levels of IFN-γ, compared to α-GalCer
Serum IL-4 secretion compared to α-GalCer: equal or greater IL-4 secretion than α-GalCer

CCCCCCCCCCCCCCCCCCCCCCCCc1cn([C@@H](CO[C@H]2OC(CO)[C@H](O)[C@H](O)[C@H]2O)[C@H](O)[C@H](O)CCCCCCCCCCCCCC)nn1 (stereo partly drawn) [Example 5, (2S,3R,4S,5R)-2-((2S,3S,4R)-3,4-dihydroxy-2-(4-tetracosyl-1H-1,2,3-triazol-1-yl)octadecyloxy)-6-(hydroxymethyl)-tetrahydro-2H-pyrane-3,4,5-triol]
Serum IFN-γ level compared to α-GalCer: relatively small levels of IFN-γ, compared to α-GalCer
Serum IL-4 secretion compared to α-GalCer: equal or greater IL-4 secretion than α-GalCer

CCCCCCCCCCCCCCCCCCCCCCCc1cn([C@@H](CO[C@H]2OC(CO)[C@H](O)[C@H](O)[C@H]2O)[C@H](O)[C@H](O)CCCCCCCCCCCCCC)nn1 (stereo partly drawn) [Example 4, (2S,3R,4S,5R)-2-((2S,3S,4R)-3,4-dihydroxy-2-(4-tricosyl-1H-1,2,3-triazol-1-yl)octadecyloxy)-6-(hydroxymethyl)-tetranydro-2H-pyrane-3,4,5-triol]
Serum IFN-γ level compared to α-GalCer: relatively small levels of IFN-γ, compared to α-GalCer
Serum IL-4 secretion compared to α-GalCer: equal or greater IL-4 secretion than α-GalCer

CCCCCCCCCCCCCCCCCCCCCCCCCc1cn([C@@H](CO[C@H]2OC(CO)[C@H](O)[C@H](O)[C@H]2O)[C@H](O)[C@H](O)CCCCCCCCCCCCCC)nn1 (stereo partly drawn) [Example 6, (2S,3R,4S,5R)-2-((2S,3S,4R)-3,4-dihydroxy-2-(4-pentacosyl-1H-1,2,3-triazol-1-yl)octadecyloxy)-6-(hydroxymethyl)-tetrahydro-2H-pyrane-3,4,5-triol]
Serum IFN-γ level compared to α-GalCer: relatively small levels of IFN-γ, compared to α-GalCer
Serum IL-4 secretion compared to α-GalCer: equal or greater IL-4 secretion than α-GalCer

CCCCCCCCCCCCCC[C@@H](O)[C@@H](O)[C@H](CO[C@H]1OC(CO)[C@H](O)[C@H](O)[C@H]1O)NC(=O)CCCCCCCCCCN(CCCCC)CCCCC (stereo partly drawn) [Example 15, N-((2S,3S,4R)-3,4-dihydroxy-1-((2S,3R,4S,5R)-3,4,5-trihydroxy-6-(hydroxymethyl)-tetrahydro-2H-pyran-2-yloxy)octadecan-2-yl)-11-(dipentylamino)undecanamide]
Serum IFN-γ level compared to α-GalCer: relatively small levels of IFN-γ, compared to α-GalCer
Serum IL-4 secretion compared to α-GalCer: equal or greater IL-4 secretion than α-GalCer

CCCCCCCCCCCCCC[C@@H](O)[C@@H](O)[C@H](CO[C@H]1OC(CO)[C@H](O)[C@H](O)[C@H]1O)NC(=O)CCCCCCCCCCO (stereo partly drawn) [Example 12, N-((2S,3S,4R)-3,4-dihydroxy-1-((2S,3R,4S,5R)-3,4,5-trihydroxy-6-(hydroxymethyl)-tetrahydro-2H-pyran-2-yloxy)octadecan-2-yl)-11-hydroxyundecanamide]
Serum IFN-γ level compared to α-GalCer: relatively small levels of IFN-γ, compared to α-GalCer
Serum IL-4 secretion compared to α-GalCer: equal or greater IL-4 secretion than α-GalCer
